Test results reported in article PMC10464977.
These are yes or no findings as the source states them, for the method shown. In cells and extracts the contact can be indirect. A result given as binding can be weak or reduced; the word gives no strength. Where a sequence is shown, tags or fusion partners need not be part of it.

Legend:
[1] = molecular target: T1, FLAG::DBL-1 mature domain (C. elegans) (UniProt G5EEL5); experiment: co-IP; LON-2::Myc and DBL-1 (HA::prodomain::FLAG::mature domain) from S2 cells mixed together in the presence of SMOC-1::V5; IP with anti-FLAG beads or anti-Myc beads, IB with anti-Myc, anti-V5 or anti-FLAG
T1 sequence: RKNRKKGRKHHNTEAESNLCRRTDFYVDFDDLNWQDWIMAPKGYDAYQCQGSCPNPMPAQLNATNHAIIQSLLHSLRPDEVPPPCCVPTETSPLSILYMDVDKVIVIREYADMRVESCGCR

[2] = molecular target: T1, FLAG::DBL-1 mature domain (C. elegans); experiment: co-IP; two lysates or media of transfected Drosophila S2 cells, each with one tagged protein, mixed and rotated on anti-HA, anti-V5, anti-Myc or anti-FLAG beads overnight at 4°C; five washes in 50 mM Tris-HCl (pH 7.5), 150 mM NaCl, 1% Triton X-100; immunoblot

SMOC-1(Full)::V5 (C. elegans)
binding [1]: binds
binding [2]: binds
